± gives the standard deviation of the averaged measurements. This is one part of the list.
Compound: Nc1nc2c(ncn2[C@@H]2O[C@H](COP(=O)(O)OP(=O)(O)OP(=O)(O)O)[C@@H](O)[C@H]2O)c(=O)[nH]1 [guanosine triphosphate]
Assay: NP40-soluble protein abundance relative to vehicle (solubility fold change) (ratio); higher = more soluble protein in presence of GTP
Summary of the method: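 Each value is a fold change relative to the detergent-processed vehicle, calculated per replicate from vsn-normalised intensities. Jurkat crude lysate received eight concentrations (0.1 to 10 mM) for 10 min at room temperature and 3 min at 37 °C, then was solubilised in 0.8% NP40 with benzonase (60 min, 4 °C). The ultracentrifuged supernatant was TMT-labelled and run by LC-MS/MS in three independent experiments.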

Sequences of proteins named here, by UniProt entry; tags and fusion partners are left off. A change or cut given only in a name is not applied to a line headed by its entry.
UniProt Q5RKV6, whole entry: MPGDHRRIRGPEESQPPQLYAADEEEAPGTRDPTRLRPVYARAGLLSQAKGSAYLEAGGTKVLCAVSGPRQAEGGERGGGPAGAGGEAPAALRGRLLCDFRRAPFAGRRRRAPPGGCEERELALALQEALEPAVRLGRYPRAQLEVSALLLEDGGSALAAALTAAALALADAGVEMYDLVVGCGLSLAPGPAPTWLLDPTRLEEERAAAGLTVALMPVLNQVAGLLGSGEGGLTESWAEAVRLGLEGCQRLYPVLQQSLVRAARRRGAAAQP
UniProt Q5EBL8: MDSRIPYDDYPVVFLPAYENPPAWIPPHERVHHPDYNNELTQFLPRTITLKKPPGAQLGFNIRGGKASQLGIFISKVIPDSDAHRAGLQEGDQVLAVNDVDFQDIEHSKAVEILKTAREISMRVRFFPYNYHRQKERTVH
UniProt Q14699: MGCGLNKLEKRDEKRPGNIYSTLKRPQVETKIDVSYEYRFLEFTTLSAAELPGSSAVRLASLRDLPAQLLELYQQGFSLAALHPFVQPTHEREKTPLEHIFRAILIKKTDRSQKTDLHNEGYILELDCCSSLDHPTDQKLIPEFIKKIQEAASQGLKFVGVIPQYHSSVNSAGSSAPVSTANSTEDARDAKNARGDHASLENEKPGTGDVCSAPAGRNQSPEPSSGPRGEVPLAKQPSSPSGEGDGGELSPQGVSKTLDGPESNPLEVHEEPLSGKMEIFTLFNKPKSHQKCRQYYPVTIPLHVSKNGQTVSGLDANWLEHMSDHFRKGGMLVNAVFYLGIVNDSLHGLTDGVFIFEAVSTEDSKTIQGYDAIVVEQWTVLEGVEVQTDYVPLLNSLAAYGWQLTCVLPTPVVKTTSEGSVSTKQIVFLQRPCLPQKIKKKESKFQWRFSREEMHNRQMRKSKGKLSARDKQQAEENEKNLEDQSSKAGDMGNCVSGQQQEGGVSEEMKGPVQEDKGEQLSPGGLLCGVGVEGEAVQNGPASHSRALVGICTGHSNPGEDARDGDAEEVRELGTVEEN
UniProt Q15003, whole entry: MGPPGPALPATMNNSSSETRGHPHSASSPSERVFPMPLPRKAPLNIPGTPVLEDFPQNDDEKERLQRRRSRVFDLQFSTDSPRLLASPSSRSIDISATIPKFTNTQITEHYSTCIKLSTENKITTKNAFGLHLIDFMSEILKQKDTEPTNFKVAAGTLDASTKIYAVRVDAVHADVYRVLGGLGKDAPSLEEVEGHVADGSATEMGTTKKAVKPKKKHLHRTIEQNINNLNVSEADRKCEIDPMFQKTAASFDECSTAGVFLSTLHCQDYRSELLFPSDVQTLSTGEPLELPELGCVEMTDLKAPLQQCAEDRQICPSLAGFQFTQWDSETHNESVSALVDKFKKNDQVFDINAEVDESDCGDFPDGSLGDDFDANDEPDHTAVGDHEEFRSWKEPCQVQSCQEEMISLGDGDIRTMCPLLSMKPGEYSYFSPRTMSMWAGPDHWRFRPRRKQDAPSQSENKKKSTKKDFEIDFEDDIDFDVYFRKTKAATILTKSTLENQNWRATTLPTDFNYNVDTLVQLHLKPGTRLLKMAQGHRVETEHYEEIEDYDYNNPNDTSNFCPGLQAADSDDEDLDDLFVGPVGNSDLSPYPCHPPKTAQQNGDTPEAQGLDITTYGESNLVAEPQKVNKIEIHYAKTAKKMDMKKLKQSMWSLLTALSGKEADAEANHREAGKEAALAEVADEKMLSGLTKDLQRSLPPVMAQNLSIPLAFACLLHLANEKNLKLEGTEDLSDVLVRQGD
UniProt Q15257: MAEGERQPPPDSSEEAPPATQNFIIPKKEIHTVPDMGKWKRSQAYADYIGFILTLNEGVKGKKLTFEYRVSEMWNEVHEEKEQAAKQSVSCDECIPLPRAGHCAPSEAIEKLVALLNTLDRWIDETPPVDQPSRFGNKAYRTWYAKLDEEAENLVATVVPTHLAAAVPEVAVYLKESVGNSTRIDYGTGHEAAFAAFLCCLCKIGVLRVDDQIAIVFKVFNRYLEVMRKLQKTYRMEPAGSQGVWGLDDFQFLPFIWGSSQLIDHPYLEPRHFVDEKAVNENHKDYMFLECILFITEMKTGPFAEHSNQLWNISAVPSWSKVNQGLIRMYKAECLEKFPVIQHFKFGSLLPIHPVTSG
UniProt Q14764, whole entry: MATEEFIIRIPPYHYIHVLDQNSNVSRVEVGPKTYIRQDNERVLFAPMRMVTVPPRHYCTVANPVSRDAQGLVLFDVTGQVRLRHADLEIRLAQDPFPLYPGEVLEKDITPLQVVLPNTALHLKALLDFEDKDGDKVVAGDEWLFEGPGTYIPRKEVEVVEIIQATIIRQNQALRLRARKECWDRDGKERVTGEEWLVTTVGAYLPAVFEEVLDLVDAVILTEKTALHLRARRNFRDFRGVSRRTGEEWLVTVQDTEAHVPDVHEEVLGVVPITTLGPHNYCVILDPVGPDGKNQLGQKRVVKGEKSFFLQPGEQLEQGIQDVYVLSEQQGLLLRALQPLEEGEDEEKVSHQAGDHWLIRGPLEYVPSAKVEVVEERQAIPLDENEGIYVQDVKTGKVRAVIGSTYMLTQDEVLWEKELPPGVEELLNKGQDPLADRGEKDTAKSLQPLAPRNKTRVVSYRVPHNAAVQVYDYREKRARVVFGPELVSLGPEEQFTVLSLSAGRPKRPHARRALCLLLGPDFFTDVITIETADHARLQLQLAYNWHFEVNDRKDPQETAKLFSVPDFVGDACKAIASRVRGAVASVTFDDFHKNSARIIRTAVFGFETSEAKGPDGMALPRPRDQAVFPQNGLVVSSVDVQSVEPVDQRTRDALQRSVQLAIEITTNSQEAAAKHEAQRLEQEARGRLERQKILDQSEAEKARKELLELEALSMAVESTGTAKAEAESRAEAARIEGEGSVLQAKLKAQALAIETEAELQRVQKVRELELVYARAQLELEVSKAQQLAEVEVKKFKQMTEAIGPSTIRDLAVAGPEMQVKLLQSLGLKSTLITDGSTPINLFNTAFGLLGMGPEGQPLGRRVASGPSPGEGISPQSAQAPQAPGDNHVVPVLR
UniProt Q1ED39: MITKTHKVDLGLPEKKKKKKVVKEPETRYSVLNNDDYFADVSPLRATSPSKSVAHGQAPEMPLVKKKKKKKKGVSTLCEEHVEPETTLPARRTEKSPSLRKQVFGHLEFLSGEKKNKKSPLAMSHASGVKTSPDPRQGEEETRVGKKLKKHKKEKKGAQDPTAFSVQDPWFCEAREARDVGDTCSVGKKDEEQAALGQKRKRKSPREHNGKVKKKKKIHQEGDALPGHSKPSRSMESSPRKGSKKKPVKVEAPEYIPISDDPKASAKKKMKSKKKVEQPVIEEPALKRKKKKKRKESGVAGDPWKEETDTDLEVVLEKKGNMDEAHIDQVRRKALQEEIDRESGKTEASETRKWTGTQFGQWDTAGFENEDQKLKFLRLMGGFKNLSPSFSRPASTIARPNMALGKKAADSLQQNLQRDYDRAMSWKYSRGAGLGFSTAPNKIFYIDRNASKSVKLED
UniProt Q14739: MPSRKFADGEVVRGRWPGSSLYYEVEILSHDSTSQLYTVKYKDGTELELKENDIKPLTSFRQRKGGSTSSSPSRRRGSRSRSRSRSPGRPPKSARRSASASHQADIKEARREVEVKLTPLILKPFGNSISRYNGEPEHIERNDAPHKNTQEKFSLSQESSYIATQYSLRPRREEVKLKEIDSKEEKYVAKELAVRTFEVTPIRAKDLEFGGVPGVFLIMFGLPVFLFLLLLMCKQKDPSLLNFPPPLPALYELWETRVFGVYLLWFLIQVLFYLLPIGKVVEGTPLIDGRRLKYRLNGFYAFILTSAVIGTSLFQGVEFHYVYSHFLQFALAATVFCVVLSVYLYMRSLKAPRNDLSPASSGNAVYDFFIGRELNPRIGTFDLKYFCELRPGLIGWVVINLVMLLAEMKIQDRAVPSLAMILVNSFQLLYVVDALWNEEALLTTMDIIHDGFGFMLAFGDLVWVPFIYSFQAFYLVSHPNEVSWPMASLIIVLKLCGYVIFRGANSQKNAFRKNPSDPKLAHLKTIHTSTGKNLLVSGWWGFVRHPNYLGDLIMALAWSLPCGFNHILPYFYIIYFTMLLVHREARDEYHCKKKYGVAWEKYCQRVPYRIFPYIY
UniProt Q29RF7: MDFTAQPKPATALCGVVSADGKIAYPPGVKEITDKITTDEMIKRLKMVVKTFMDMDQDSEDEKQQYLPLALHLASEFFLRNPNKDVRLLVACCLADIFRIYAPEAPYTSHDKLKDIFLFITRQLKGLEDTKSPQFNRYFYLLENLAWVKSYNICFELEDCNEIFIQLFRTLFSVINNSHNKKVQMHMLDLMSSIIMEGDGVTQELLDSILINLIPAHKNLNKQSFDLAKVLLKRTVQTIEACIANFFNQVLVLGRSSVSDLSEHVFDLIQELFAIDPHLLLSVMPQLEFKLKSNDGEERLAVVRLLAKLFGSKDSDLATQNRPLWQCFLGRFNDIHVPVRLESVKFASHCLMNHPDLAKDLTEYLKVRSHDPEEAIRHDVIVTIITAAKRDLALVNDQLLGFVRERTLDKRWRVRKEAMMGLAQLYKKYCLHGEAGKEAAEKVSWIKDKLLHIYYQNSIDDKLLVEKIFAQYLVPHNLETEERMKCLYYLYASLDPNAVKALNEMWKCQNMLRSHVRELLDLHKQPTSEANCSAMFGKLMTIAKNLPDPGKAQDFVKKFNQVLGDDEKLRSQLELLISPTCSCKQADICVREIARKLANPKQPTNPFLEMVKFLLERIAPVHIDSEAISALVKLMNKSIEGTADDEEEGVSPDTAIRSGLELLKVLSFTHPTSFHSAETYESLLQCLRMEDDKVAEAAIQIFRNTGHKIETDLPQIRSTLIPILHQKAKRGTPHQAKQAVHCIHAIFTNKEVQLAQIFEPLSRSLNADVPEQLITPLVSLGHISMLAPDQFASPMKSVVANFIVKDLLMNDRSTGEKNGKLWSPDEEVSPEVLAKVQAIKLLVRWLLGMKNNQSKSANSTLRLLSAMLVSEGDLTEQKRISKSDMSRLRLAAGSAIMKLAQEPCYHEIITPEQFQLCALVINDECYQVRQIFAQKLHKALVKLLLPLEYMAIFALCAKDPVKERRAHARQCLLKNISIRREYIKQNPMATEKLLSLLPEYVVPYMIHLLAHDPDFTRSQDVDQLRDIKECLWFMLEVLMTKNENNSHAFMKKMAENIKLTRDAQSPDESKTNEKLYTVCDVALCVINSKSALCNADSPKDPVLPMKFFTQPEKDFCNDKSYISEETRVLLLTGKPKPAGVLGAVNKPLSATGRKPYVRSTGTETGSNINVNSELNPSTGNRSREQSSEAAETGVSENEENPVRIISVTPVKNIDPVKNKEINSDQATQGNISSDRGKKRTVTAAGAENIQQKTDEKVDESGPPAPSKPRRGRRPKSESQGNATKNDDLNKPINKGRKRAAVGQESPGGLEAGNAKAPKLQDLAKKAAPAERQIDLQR
UniProt Q15036: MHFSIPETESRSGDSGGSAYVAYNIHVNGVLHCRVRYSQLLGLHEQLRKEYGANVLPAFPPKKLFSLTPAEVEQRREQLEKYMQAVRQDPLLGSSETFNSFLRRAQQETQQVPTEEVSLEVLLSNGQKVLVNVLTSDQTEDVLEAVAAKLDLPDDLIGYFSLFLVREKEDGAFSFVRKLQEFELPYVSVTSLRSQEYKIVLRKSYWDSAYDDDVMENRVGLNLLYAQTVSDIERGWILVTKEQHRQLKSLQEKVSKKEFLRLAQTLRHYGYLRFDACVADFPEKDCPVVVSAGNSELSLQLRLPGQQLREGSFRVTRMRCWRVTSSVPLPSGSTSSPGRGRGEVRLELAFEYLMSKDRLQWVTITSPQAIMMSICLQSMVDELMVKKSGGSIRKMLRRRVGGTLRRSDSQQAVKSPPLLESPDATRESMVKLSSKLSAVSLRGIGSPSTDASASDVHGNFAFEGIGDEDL
UniProt Q3KRA6: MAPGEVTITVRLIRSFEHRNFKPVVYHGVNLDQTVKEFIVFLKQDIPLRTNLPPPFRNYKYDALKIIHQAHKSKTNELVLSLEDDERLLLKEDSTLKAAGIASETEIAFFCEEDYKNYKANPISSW
UniProt Q14738, whole entry: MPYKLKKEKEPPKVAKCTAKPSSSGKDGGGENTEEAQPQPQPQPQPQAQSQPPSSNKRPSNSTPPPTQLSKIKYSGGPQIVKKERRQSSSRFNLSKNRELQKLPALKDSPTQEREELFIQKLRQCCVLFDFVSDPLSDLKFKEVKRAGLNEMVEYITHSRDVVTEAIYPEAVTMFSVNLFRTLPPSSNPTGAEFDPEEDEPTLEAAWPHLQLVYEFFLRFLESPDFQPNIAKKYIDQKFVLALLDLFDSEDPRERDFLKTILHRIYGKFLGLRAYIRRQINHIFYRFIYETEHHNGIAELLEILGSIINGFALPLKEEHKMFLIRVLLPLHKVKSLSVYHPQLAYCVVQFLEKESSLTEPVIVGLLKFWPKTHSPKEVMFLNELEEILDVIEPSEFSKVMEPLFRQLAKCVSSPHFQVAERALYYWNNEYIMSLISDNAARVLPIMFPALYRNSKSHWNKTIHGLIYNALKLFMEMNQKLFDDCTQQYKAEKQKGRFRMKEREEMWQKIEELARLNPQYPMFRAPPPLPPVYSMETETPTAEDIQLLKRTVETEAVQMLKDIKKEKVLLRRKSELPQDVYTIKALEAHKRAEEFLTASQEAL

Target	NP40-soluble protein abundance (concentration: 0.1mM)	NP40-soluble protein abundance (concentration: 0.5mM)	NP40-soluble protein abundance (concentration: 1mM)	NP40-soluble protein abundance (concentration: 2mM)	NP40-soluble protein abundance (concentration: 4mM)	NP40-soluble protein abundance (concentration: 6mM)	NP40-soluble protein abundance (concentration: 8mM)	NP40-soluble protein abundance (concentration: 10mM)
UniProt Q15291 and related entries	1.03 ± 0.062	1.03 ± 0.057	0.957 ± 0.041	0.996 ± 0.083	1.01 ± 0.11	1.05 ± 0.079	1.01 ± 0.057	1.03 ± 0.051
EXOSC6 (UniProt Q5RKV6)	1.07 ± 0.068	1.01 ± 0.029	1.07 ± 0.035	1.12 ± 0.054	1.24 ± 0.14	1.23 ± 0.12	1.25 ± 0.056	1.27 ± 0.093
UniProt Q5EBL8 and related entries	1.14 ± 0.086	1.02 ± 0.091	1.23 ± 0.15	1.24 ± 0.07	1.24 ± 0.19	1.13 ± 0.13	1.3 ± 0.048	1.26 ± 0.066
Q5JVZ5 and related entries (UniProt Q96JJ3)	1.01 ± 0.012	1.043 ± 0.0096	1.027 ± 0.0054	1.03 ± 0.015	0.981 ± 0.037	0.998 ± 0.01	0.982 ± 0.034	0.946 ± 0.04
UniProt Q14746 and related entries	1.03 ± 0.031	0.998 ± 0.027	1.08 ± 0.045	1.07 ± 0.045	1.09 ± 0.035	1.12 ± 0.068	1.12 ± 0.1	1.13 ± 0.076
ARHGEF6 (UniProt Q15052)	1.03 ± 0.014	1.03 ± 0.018	1.03 ± 0.041	1.03 ± 0.014	1.03 ± 0.034	1.01 ± 0.038	1.03 ± 0.054	0.985 ± 0.023
PPP1R7 (UniProt Q15435)	0.912 ± 0.061	0.905 ± 0.061	0.911 ± 0.084	0.864 ± 0.063	0.859 ± 0.082	0.864 ± 0.061	0.832 ± 0.1	0.82 ± 0.085
ERCC6L (UniProt Q2NKX8)	0.994 ± 0.039	1.01 ± 0.062	0.961 ± 0.045	0.95 ± 0.062	0.93 ± 0.04	0.944 ± 0.053	0.931 ± 0.038	0.944 ± 0.038
UniProt Q16698 and related entries	0.994 ± 0.03	0.978 ± 0.056	1.03 ± 0.092	1.07 ± 0.18	1.23 ± 0.27	1.37 ± 0.36	1.42 ± 0.34	1.39 ± 0.38
UniProt Q14699 and related entries	0.992 ± 0.061	0.928 ± 0.07	0.97 ± 0.079	0.946 ± 0.088	0.948 ± 0.085	0.914 ± 0.071	0.952 ± 0.019	0.925 ± 0.048
NCAPH (UniProt Q15003)	0.967 ± 0.021	1.02 ± 0.028	0.991 ± 0.015	1.01 ± 0.037	0.983 ± 0.041	1.02 ± 0.052	1.01 ± 0.084	1.01 ± 0.069
UniProt Q15833 and related entries	1 ± 0.034	0.988 ± 0.0093	0.943 ± 0.032	0.948 ± 0.044	0.923 ± 0.059	0.924 ± 0.06	0.906 ± 0.038	0.914 ± 0.061
UniProt Q15257 and related entries	0.989 ± 0.016	0.9682 ± 0.0072	0.927 ± 0.036	0.891 ± 0.051	0.864 ± 0.076	0.853 ± 0.058	0.866 ± 0.067	0.836 ± 0.091
UniProt Q16774 and related entries	0.8938 ± 0.0022	0.885 ± 0.04	0.947 ± 0.041	0.93 ± 0.072	0.863 ± 0.062	0.902 ± 0.089	0.839 ± 0.098	0.875 ± 0.088
MVP (UniProt Q14764)	0.999 ± 0.019	1.03 ± 0.087	1.06 ± 0.081	1.14 ± 0.12	1.29 ± 0.34	1.12 ± 0.3	1.06 ± 0.19	1.02 ± 0.23
UniProt Q1ED39	0.995 ± 0.035	0.984 ± 0.031	1.09 ± 0.039	1.14 ± 0.014	1.17 ± 0.052	1.25 ± 0.062	1.33 ± 0.06	1.42 ± 0.059
LBR (UniProt Q14739)	0.978 ± 0.013	0.942 ± 0.061	0.909 ± 0.064	0.845 ± 0.036	0.783 ± 0.058	0.767 ± 0.039	0.785 ± 0.013	0.769 ± 0.013
PDS5A (UniProt Q29RF7)	1 ± 0.011	1.01 ± 0.018	0.973 ± 0.013	0.956 ± 0.01	0.952 ± 0.014	0.947 ± 0.019	0.951 ± 0.019	0.937 ± 0.024
UniProt Q15036 and related entries	1.04 ± 0.029	0.996 ± 0.12	0.902 ± 0.073	0.911 ± 0.045	0.911 ± 0.022	0.902 ± 0.032	0.898 ± 0.086	0.897 ± 0.061
C2orf76 (UniProt Q3KRA6)	1.03 ± 0.14	0.986 ± 0.16	1.01 ± 0.054	1.06 ± 0.16	0.981 ± 0.14	1.03 ± 0.1	0.974 ± 0.12	0.935 ± 0.076
UniProt Q4G0J3 and related entries	1.09 ± 0.026	1.02 ± 0.017	1.1 ± 0.051	1.17 ± 0.061	1.3 ± 0.079	1.35 ± 0.11	1.41 ± 0.13	1.49 ± 0.1
UniProt Q14789 and related entries	1 ± 0.019	0.984 ± 0.041	1.02 ± 0.022	0.989 ± 0.049	0.993 ± 0.026	1 ± 0.035	1.02 ± 0.046	1.01 ± 0.051
UniProt Q2TB10 and related entries	1.04 ± 0.1	1.15 ± 0.14	1.15 ± 0.12	1.36 ± 0.28	1.68 ± 0.48	1.9 ± 0.44	2.04 ± 0.64	2.54 ± 1.1
UniProt Q2TAY7	1.06 ± 0.093	1.06 ± 0.12	0.965 ± 0.052	1.04 ± 0.13	1.07 ± 0.12	1.08 ± 0.08	1.08 ± 0.035	1.1 ± 0.12
TAF9 (UniProt Q16594)	1.06 ± 0.11	0.991 ± 0.044	1.086 ± 0.0081	1.12 ± 0.018	1.1 ± 0.086	1.14 ± 0.073	1.24 ± 0.077	1.29 ± 0.033
PPP2R5D (UniProt Q14738)	0.946 ± 0.038	0.969 ± 0.061	0.972 ± 0.063	0.952 ± 0.062	0.928 ± 0.08	0.936 ± 0.078	0.946 ± 0.044	0.951 ± 0.043

Complete entries from above.
C2orf76 (UniProt Q3KRA6) is listed with NP40-soluble protein abundance (concentration: 0.1mM): 1.03 ± 0.14; NP40-soluble protein abundance (concentration: 0.5mM): 0.986 ± 0.16; NP40-soluble protein abundance (concentration: 1mM): 1.01 ± 0.054; NP40-soluble protein abundance (concentration: 2mM): 1.06 ± 0.16; NP40-soluble protein abundance (concentration: 4mM): 0.981 ± 0.14; NP40-soluble protein abundance (concentration: 6mM): 1.03 ± 0.1; NP40-soluble protein abundance (concentration: 8mM): 0.974 ± 0.12; NP40-soluble protein abundance (concentration: 10mM): 0.935 ± 0.076
Q5JVZ5 and related entries (UniProt Q96JJ3) is listed with NP40-soluble protein abundance (concentration: 0.1mM): 1.01 ± 0.012; NP40-soluble protein abundance (concentration: 0.5mM): 1.043 ± 0.0096; NP40-soluble protein abundance (concentration: 1mM): 1.027 ± 0.0054; NP40-soluble protein abundance (concentration: 2mM): 1.03 ± 0.015; NP40-soluble protein abundance (concentration: 4mM): 0.981 ± 0.037; NP40-soluble protein abundance (concentration: 6mM): 0.998 ± 0.01; NP40-soluble protein abundance (concentration: 8mM): 0.982 ± 0.034; NP40-soluble protein abundance (concentration: 10mM): 0.946 ± 0.04
